# Data as given in PubChem BioAssay AID720505 (Drosophila RNAi Screening Center, 2013)
# Aim: 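Genes needed for store-operated calcium entry in fly cells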 (primary screen)
# Cells: Drosophila S2R+ cells
# Reagent: long dsRNA against Drosophila genes
# Challenge: thapsigargin (2 µM) in calcium-free buffer to empty internal stores, then 2 mM calcium added back
# Detection: 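Stores emptied by 2 µM thapsigargin without calcium, then 2 mM calcium re-added; fluo-4 fluorescence followed by FLIPR in 384-well plates, per-well averaged endpoint, raw; two screen passes, some wells retested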
# Direction: calcium signal and retest calcium signal: higher = more calcium entry after store depletion
# Hit rule: 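About 1500 genes called as lowering calcium entry, by varying amounts, judged against per-plate control wells with STIM1 as positive and Rho1 as negative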
# Meaning of the calls: active = called as lowering calcium entry; inactive = not called
# The deposit covers about 20,000 reagents; this is an unselected part of those that have a named target and a result. Of all reagents, about 2,100 (10%) were called active. 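Raw plate signals without normalisation; calls rest on control-based scores that were not deposited; replicate 2 separates called from uncalled poorly.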 Reagent sequences are not shown. Not given: the amount of reagent, the time to read-out.
gene,DRSC id,"calcium signal, replicate 1","calcium signal, replicate 2","retest calcium signal, replicate 1","retest calcium signal, replicate 2",Call
Adk3,DRSC05917,159,84.8,,,inactive
CG17147,DRSC10249,64.5,121,,,active
CG18810,DRSC02701,176,106,,,inactive
CG43071,DRSC05753,156,119,,,inactive
CG10555,DRSC17748,227,133,,,inactive
CG10555,DRSC23202,114,153,,,inactive
CG34231,DRSC05323,59.8,109,,,inactive
CG34230,DRSC05317,62,109,,,inactive
Rnb,DRSC16325,146,191,,,inactive
E(spl)m2-BFM,DRSC16991,196,144,,,inactive
E(spl)m2-BFM,DRSC23082,120,113,,,inactive
Nadsyn,DRSC20222,131,132,,,inactive
CG4627,DRSC06873,154,112,,,inactive
ncm,DRSC02179,57.8,83.5,,,active
CG15375,DRSC18045,94.6,111,,,inactive
CG14434,DRSC17927,329,173,,,inactive
Der-1,DRSC00301,135,261,,,inactive
Plc21C,DRSC00773,138,180,,,inactive
Elp2,DRSC06095,192,144,,,inactive
Pcyt1,DRSC08157,164,142,,,inactive
CG2336,DRSC12581,171,166,,,inactive
CG12869,DRSC06208,97,125,,,inactive
CG16749,DRSC15146,72,99.5,,,active
PolD1,DRSC11138,98.2,148,,,inactive
Dhdds,DRSC17756,132,88.6,,,inactive
Camta,DRSC06440,131,110,,,inactive
Camta,DRSC06441,147,108,104,122,inactive
Camta,DRSC07272,171,115,,,inactive
Camta,DRSC23081,101,124,,,inactive
Camta,DRSC23156,105,146,,,inactive
Chc,DRSC20229,151,122,,,inactive
Zmynd8,DRSC15310,103,164,,,inactive
CG11474,DRSC04112,93.7,123,,,inactive
CG11714,DRSC09857,122,77.7,,,inactive
mus81,DRSC18180,91.6,107,,,active
mus81,DRSC18644,87.3,169,,,inactive
CG8349,DRSC03083,117,153,,,inactive
CG5440,DRSC00685,208,205,,,inactive
Cp19,DRSC11121,128,93,,,inactive
fwe,DRSC09398,,,,,inactive
fwe,DRSC10594,149,121,,,inactive
fwe,DRSC21400,248,93.5,,,inactive
Spf45,DRSC03826,203,86.8,,,inactive
CG14014,DRSC02345,108,114,,,inactive
CG3708,DRSC18646,145,157,,,inactive
HUWE1,DRSC20089,101,146,,,inactive
Dera,DRSC07207,221,152,,,inactive
Dera,DRSC21336,115,93.6,,,inactive
Hsp60D,DRSC02543,120,158,,,inactive
scra,DRSC07679,120,84.5,,,inactive
Prestin,DRSC10507,88.5,88.2,,,active
Taf11,DRSC03448,178,142,,,inactive
Polr1E,DRSC14506,159,162,,,inactive
Polr1E,DRSC15358,222,295,,,inactive
Or24a,DRSC00768,87.8,107,,,inactive
CG5708,DRSC02881,153,141,,,inactive

Single entries from the list.
For “calcium signal, replicate 1”, mus81 [DRSC18180] shows 91.6
CG8349 [DRSC03083], calcium signal, replicate 2 = 153
Under “calcium signal, replicate 1”, Polr1E [DRSC15358] has 222
mus81 [DRSC18644], calcium signal, replicate 2: 169
For “calcium signal, replicate 1”, Elp2 [DRSC06095] has 192
Der-1 [DRSC00301], calcium signal, replicate 1 = 135
